PMC10933402

How the values were obtained:
[1] = target: T1, EPRS-FLAG, P07814; assay: affinity purification with mass spectrometry; FLAG eluates from HeLa-S3-FlpIn ± EPRSf or HeLa-S3-FlpIn-BCDIN3D-KO ± EPRSf analysed by LC-MS/MS; co-IP buffer with 150 mM NaCl, 0.1% NP-40, 4 °C; conditions: remark: other sources report otherwise
T1 chain: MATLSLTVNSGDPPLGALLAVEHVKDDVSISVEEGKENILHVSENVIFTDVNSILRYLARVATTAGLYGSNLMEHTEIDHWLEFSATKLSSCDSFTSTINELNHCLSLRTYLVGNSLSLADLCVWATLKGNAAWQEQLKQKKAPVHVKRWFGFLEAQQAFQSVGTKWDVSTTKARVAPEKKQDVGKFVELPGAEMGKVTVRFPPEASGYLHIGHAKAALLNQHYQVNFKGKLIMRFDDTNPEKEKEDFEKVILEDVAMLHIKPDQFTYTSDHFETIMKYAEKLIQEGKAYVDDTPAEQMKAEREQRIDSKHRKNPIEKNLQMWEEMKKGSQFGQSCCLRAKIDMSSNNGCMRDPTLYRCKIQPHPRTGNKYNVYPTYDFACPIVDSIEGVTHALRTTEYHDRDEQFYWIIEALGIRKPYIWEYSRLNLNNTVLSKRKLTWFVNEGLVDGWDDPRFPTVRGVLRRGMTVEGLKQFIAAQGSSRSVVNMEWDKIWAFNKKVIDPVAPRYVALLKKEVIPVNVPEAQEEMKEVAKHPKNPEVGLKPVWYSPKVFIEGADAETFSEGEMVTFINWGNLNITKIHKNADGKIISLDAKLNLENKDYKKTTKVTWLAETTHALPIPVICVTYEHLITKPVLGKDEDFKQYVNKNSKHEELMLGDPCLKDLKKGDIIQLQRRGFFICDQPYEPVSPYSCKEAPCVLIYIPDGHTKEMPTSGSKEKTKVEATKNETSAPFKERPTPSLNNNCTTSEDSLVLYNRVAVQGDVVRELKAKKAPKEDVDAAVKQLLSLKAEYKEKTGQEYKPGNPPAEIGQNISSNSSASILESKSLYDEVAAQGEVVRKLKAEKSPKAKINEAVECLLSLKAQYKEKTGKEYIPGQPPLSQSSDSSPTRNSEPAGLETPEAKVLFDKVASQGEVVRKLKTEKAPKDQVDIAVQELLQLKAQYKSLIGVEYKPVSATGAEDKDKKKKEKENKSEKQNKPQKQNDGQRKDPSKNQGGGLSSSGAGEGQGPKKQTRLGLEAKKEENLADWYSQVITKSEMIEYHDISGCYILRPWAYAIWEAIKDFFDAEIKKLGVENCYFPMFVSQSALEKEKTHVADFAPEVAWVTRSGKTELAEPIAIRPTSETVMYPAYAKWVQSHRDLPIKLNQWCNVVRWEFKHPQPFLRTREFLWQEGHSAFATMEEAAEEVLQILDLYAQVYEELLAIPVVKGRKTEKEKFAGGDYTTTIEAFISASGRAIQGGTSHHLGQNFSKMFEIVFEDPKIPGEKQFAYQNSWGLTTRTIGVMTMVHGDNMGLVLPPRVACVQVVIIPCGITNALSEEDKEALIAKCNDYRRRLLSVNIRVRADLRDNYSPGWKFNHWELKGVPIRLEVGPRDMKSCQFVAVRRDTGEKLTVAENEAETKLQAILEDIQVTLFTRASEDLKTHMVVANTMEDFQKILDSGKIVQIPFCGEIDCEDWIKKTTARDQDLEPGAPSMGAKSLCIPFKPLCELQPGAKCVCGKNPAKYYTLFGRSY

[2] = target: EPRS-FLAG (UniProt P07814); assay: as above

- binding [1]: binds
B1: MARS (methionyl tRNA synthetase), endogenous, P56192 1-900 (protein)
chain: MRLFVSDGVPGCLPVLAAAGRARGRAEVLISTVGPEDCVVPFLTRPKVPVLQLDSGNYLFSTSAICRYFFLLSGWEQDDLTNQWLEWEATELQPALSAALYYLVVQGKKGEDVLGSVRRALTHIDHSLSRQNCPFLAGETESLADIVLWGALYPLLQDPAYLPEELSALHSWFQTLSTQEPCQRAAETVLKQQGVLALRPYLQKQPQPSPAEGRAVTNEPEEEELATLSEEEIAMAVTAWEKGLESLPPLRPQQNPVLPVAGERNVLITSALPYVNNVPHLGNIIGCVLSADVFARYSRLRQWNTLYLCGTDEYGTATETKALEEGLTPQEICDKYHIIHADIYRWFNISFDIFGRTTTPQQTKITQDIFQQLLKRGFVLQDTVEQLRCEHCARFLADRFVEGVCPFCGYEEARGDQCDKCGKLINAVELKKPQCKVCRSCPVVQSSQHLFLDLPKLEKRLEEWLGRTLPGSDWTPNAQFITRSWLRDGLKPRCITRDLKWGTPVPLEGFEDKVFYVWFDATIGYLSITANYTDQWERWWKNPEQVDLYQFMAKDNVPFHSLVFPCSALGAEDNYTLVSHLIATEYLNYEDGKFSKSRGVGVFGDMAQDTGIPADIWRFYLLYIRPEGQDSAFSWTDLLLKNNSELLNNLGNFINRAGMFVSKFFGGYVPEMVLTPDDQRLLAHVTLELQHYHQLLEKVRIRDALRSILTISRHGNQYIQVNEPWKRIKGSEADRQRAGTVTGLAVNIAALLSVMLQPYMPTVSATIQAQLQLPPPACSILLTNFLCTLPAGHQIGTVSPLFQKLENDQIESLRQRFGGGQAKTSPKPAVVETVTTAKPQQIQALMDEVTKQGNIVRELKAQKADKNEVAAEVAKLLDLKKQLAVAEGKPPEAPKGKKKK

- binding [2]: binds
B2: AIMP2 (protein, UniProt Q13155 1-320)
chain: MPMYQVKPYHGGGAPLRVELPTCMYRLPNVHGRSYGPAPGAGHVQEESNLSLQALESRQDDILKRLYELKAAVDGLSKMIQTPDADLDVTNIIQADEPTTLTTNALDLNSVLGKDYGALKDIVINANPASPPLSLLVLHRLLCEHFRVLSTVHTHSSVKSVPENLLKCFGEQNKKQPRQDYQLGFTLIWKNVPKTQMKFSIQTMCPIEGEGNIARFLFSLFGQKHNAVNATLIDSWVDIAIFQLKEGSSKEKAAVFRSMNSALGKSPWLAGNELTVADVVLWSVLQQIGGCSVTVPANVQRWMRSCENLAPFNTALKLLK

These are yes or no findings as the source states them, for the method shown. Binding seen in cells or lysates may run through a third protein. These calls come from enrichment with a bait or labelling near it, and not all partners need be listed. For some assays here: Where a sequence is shown, tags or fusion partners need not be part of it. Each block holds one binder with its values, some of them ahead of it.
